Assay results taken from PMC11967773.
Results are given in words; binding and its absence hold for the method and conditions named. For some of these results: Binding seen in cells or lysates may run through a third protein. Some entries that bind do so weakly or less than the wild type. For some of these results: Tags and fused reporters may be left off the sequences shown. Values belong to the molecule of their own block, whether it stands above or below them.

The chains behind the UniProt entries cited, without tags or fusion partners.
UniProt Q04726: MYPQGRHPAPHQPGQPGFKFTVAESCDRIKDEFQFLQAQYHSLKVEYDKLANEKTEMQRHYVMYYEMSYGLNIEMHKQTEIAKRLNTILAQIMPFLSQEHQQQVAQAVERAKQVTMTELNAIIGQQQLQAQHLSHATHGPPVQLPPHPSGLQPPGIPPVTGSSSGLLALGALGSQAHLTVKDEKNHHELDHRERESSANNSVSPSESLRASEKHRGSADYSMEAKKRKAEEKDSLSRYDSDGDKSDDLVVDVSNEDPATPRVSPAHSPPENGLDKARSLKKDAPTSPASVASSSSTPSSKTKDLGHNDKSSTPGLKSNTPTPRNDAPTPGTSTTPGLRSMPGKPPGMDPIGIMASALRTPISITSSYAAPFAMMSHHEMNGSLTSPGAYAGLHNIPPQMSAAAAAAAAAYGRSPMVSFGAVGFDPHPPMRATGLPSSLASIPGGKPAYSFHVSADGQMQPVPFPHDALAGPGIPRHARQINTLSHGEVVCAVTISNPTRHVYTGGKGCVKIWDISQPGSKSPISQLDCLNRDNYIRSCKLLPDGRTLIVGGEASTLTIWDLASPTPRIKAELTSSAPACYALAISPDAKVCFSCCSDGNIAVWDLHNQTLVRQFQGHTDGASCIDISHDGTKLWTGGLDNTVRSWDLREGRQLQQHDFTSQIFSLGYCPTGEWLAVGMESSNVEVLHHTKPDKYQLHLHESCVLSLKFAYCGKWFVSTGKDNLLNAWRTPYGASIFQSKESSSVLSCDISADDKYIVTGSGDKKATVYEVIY
UniProt Q08122: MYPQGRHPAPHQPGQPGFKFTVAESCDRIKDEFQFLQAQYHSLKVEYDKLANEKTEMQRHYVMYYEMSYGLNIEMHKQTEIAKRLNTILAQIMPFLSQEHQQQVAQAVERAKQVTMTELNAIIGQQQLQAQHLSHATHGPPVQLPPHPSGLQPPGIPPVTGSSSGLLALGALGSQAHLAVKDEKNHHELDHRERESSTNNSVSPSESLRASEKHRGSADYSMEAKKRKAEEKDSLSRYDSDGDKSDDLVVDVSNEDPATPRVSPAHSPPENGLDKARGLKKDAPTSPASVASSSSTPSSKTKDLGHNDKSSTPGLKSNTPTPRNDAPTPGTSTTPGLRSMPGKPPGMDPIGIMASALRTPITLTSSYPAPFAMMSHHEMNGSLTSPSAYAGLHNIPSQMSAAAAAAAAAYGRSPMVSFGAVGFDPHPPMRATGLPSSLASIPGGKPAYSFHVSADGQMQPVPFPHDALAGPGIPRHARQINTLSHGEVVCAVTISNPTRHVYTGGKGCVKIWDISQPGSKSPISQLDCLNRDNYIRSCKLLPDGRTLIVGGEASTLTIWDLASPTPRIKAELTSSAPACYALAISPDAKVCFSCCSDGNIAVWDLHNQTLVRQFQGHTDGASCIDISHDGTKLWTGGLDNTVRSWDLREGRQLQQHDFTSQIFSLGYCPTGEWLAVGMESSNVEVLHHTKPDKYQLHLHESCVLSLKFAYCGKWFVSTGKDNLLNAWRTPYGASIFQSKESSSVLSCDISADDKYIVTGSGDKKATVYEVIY

How the values were obtained:
[1] = target: T1, TRIM56, endogenous mouse (mouse (endogenous in iWAT)) (UniProt Q80VI1); test: co-IP; iWAT lysates of mice given CL316243 injections for 5 days or PBS; lysis buffer without SDS, antibody or IgG control overnight at 4 °C, Protein A/G magnetic beads
T1 sequence: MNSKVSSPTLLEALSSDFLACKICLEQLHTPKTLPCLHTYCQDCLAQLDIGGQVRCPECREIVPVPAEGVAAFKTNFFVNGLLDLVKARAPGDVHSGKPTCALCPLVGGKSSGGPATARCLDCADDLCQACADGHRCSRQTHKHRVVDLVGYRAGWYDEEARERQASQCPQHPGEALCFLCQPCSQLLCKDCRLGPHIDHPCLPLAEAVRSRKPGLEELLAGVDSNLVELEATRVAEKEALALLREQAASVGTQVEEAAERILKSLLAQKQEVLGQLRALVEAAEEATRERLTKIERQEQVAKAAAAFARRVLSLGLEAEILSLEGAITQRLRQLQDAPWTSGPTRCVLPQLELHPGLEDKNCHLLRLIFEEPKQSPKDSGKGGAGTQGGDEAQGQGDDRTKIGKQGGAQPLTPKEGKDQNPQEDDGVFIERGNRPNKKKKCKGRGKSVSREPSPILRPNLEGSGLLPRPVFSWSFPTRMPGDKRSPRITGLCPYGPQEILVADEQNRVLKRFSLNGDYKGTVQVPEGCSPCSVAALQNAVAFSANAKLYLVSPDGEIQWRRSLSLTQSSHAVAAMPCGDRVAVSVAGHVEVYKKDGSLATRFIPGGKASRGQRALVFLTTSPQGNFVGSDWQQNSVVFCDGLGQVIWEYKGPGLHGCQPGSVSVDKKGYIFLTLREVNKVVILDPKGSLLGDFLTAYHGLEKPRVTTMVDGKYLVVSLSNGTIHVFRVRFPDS

HA-TLE3 (human) = HA-TLE3 (human) (UniProt Q04726); test: co-IP; HEK293T cells co-transfected with FLAG-tagged TRIM56 (full length or truncated fragments) and HA-tagged TLE3; immunoprecipitation
GST-TLE3, human (human) = GST-TLE3, human (human) (UniProt Q04726); test: pull-down; GST pull-down; purified FLAG-TRIM56 co-incubated in vitro with GST-TLE3 or GST; both purified

binding [1]: binds
Molecule: transducin-like enhancer protein 3 (TLE3), endogenous mouse (from UniProt Q08122 1-772)

binding (HA-TLE3 (human)): no binding
B1: FLAG-TRIM56 truncated fragment, amino acids 1 to 521 (domain or fragment, UniProt Q9BRZ2 1-521)
chain: MVSHGSSPSLLEALSSDFLACKICLEQLRAPKTLPCLHTYCQDCLAQLADGGRVRCPECRETVPVPPEGVASFKTNFFVNGLLDLVKARACGDLRAGKPACALCPLVGGTSTGGPATARCLDCADDLCQACADGHRCTRQTHTHRVVDLVGYRAGWYDEEARERQAAQCPQHPGEALRFLCQPCSQLLCRECRLDPHLDHPCLPLAEAVRARRPGLEGLLAGVDNNLVELEAARRVEKEALARLREQAARVGTQVEEAAEGVLRALLAQKQEVLGQLRAHVEAAEEAARERLAELEGREQVARAAAAFARRVLSLGREAEILSLEGAIAQRLRQLQGCPWAPGPAPCLLPQLELHPGLLDKNCHLLRLSFEEQQPQKDGGKDGAGTQGGEESQSRREDEPKTERQGGVQPQAGDGAQTPKEEKAQTTREEGAQTLEEDRAQTPHEDGGPQPHRGGRPNKKKKFKGRLKSISREPSPALGPNLDGSGLLPRPIFYCSFPTRMPGDKRSPRITGLCPFGPREI

binding (GST-TLE3, human (human)): binds
binding (HA-TLE3 (human)): binds
B2: FLAG-TRIM56, human, full length (enzyme, UniProt Q9BRZ2 1-755)
chain: MVSHGSSPSLLEALSSDFLACKICLEQLRAPKTLPCLHTYCQDCLAQLADGGRVRCPECRETVPVPPEGVASFKTNFFVNGLLDLVKARACGDLRAGKPACALCPLVGGTSTGGPATARCLDCADDLCQACADGHRCTRQTHTHRVVDLVGYRAGWYDEEARERQAAQCPQHPGEALRFLCQPCSQLLCRECRLDPHLDHPCLPLAEAVRARRPGLEGLLAGVDNNLVELEAARRVEKEALARLREQAARVGTQVEEAAEGVLRALLAQKQEVLGQLRAHVEAAEEAARERLAELEGREQVARAAAAFARRVLSLGREAEILSLEGAIAQRLRQLQGCPWAPGPAPCLLPQLELHPGLLDKNCHLLRLSFEEQQPQKDGGKDGAGTQGGEESQSRREDEPKTERQGGVQPQAGDGAQTPKEEKAQTTREEGAQTLEEDRAQTPHEDGGPQPHRGGRPNKKKKFKGRLKSISREPSPALGPNLDGSGLLPRPIFYCSFPTRMPGDKRSPRITGLCPFGPREILVADEQNRALKRFSLNGDYKGTVPVPEGCSPCSVAALQSAVAFSASARLYLINPNGEVQWRRALSLSQASHAVAALPSGDRVAVSVAGHVEVYNMEGSLATRFIPGGKASRGLRALVFLTTSPQGHFVGSDWQQNSVVICDGLGQVVGEYKGPGLHGCQPGSVSVDKKGYIFLTLREVNKVVILDPKGSLLGDFLTAYHGLEKPRVTTMVDGRYLVVSLSNGTIHIFRVRSPDS
